How the values were obtained:
Details in all cases: at 1 µM
[1] = target: Casein kinase I isoform alpha-like (Homo sapiens) (UniProt Q8N752); assay: Selectivity interaction (KinomeScan (DiscoverX)) EUB0001581a CSNK1A1L
[2] = target: STE20-like serine/threonine-protein kinase (Homo sapiens, UniProt Q9H2G2); assay: Selectivity interaction (KinomeScan (DiscoverX)) EUB0001581a SLK
[3] = target: Dual specificity protein kinase CLK3 (Homo sapiens, UniProt P49761); assay: Selectivity interaction (KinomeScan (DiscoverX)) EUB0001581a CLK3
[4] = target: T1, Non-receptor tyrosine-protein kinase TYK2 (Homo sapiens, UniProt P29597); assay: (§1) Selectivity interaction (KinomeScan (DiscoverX)) EUB0001581a TYK2
[5] = target: Serine/threonine-protein kinase DCLK3 (Homo sapiens) (UniProt Q9C098)
[6] = target: Death-associated protein kinase 2 (Homo sapiens) (UniProt Q9UIK4); assay: Selectivity interaction (KinomeScan (DiscoverX)) EUB0001581a DAPK2
[7] = target: Cyclin-dependent kinase 8 (Homo sapiens, UniProt P49336); assay: Selectivity interaction (KinomeScan (DiscoverX)) EUB0001581a CDK8
[8] = target: Mitogen-activated protein kinase kinase kinase 5 (Homo sapiens) (UniProt Q99683); assay: Selectivity interaction (KinomeScan (DiscoverX)) EUB0001581a MAP3K5
[9] = target: Serine/threonine-protein kinase PAK 3 (Homo sapiens) (UniProt O75914); assay: Selectivity interaction (KinomeScan (DiscoverX)) EUB0001581a PAK3
[10] = target: MAP kinase-activated protein kinase 5 (Homo sapiens) (UniProt Q8IW41); assay: Selectivity interaction (KinomeScan (DiscoverX)) EUB0001581a MAPKAPK5
[11] = target: Aurora kinase C (Homo sapiens) (UniProt Q9UQB9); assay: Selectivity interaction (KinomeScan (DiscoverX)) EUB0001581a AURKC
[12] = system: eIF-2-alpha kinase GCN2 (Homo sapiens), Q9P2K8 [S808G]; assay: Selectivity interaction (KinomeScan (DiscoverX)) EUB0001581a EIF2AK4
[13] = target: Calcium/calmodulin-dependent protein kinase type II subunit beta (Homo sapiens) (UniProt Q13554); assay: Selectivity interaction (KinomeScan (DiscoverX)) EUB0001581a CAMK2B
[14] = target: Cyclin-dependent kinase 2 (Homo sapiens, UniProt P24941); assay: Selectivity interaction (KinomeScan (DiscoverX)) EUB0001581a CDK2
[15] = target: Serine/threonine-protein kinase Nek3 (Homo sapiens) (UniProt P51956); assay: Selectivity interaction (KinomeScan (DiscoverX)) EUB0001581a NEK3
[16] = target: Mitogen-activated protein kinase kinase kinase 15 (Homo sapiens) (UniProt Q6ZN16); assay: Selectivity interaction (KinomeScan (DiscoverX)) EUB0001581a MAP3K15
[17] = target: Tyrosine-protein kinase Tec (Homo sapiens) (UniProt P42680); assay: Selectivity interaction (KinomeScan (DiscoverX)) EUB0001581a TEC
[18] = target: Serine/threonine-protein kinase PLK2 (Homo sapiens, UniProt Q9NYY3); assay: Selectivity interaction (KinomeScan (DiscoverX)) EUB0001581a PLK2
[19] = target: Ribosomal protein S6 kinase beta-1 (Homo sapiens, UniProt P23443); assay: Selectivity interaction (KinomeScan (DiscoverX)) EUB0001581a RPS6KB1
[20] = target: Casein kinase I isoform gamma-3 (Homo sapiens) (UniProt Q9Y6M4); assay: Selectivity interaction (KinomeScan (DiscoverX)) EUB0001581a CSNK1G3
[21] = target: Serine/threonine-protein kinase 16 (Homo sapiens, UniProt O75716); assay: Selectivity interaction (KinomeScan (DiscoverX)) EUB0001581a STK16
[22] = target: Serine/threonine-protein kinase ULK2 (Homo sapiens) (UniProt Q8IYT8); assay: Selectivity interaction (KinomeScan (DiscoverX)) EUB0001581a ULK2
[23] = target: Serine/threonine-protein kinase Chk2 (Homo sapiens) (UniProt O96017); assay: Selectivity interaction (KinomeScan (DiscoverX)) EUB0001581a CHEK2
[24] = target: Proto-oncogene tyrosine-protein kinase Src (Homo sapiens, UniProt P12931); assay: Selectivity interaction (KinomeScan (DiscoverX)) EUB0001581a SRC
[25] = target: Megakaryocyte-associated tyrosine-protein kinase (Homo sapiens) (UniProt P42679); assay: Selectivity interaction (KinomeScan (DiscoverX)) EUB0001581a MATK
[26] = target: Dual specificity mitogen-activated protein kinase kinase 2 (Homo sapiens) (UniProt P36507); assay: Selectivity interaction (KinomeScan (DiscoverX)) EUB0001581a MAP2K2
[27] = target: TRAF2 and NCK-interacting protein kinase (Homo sapiens) (UniProt Q9UKE5); assay: Selectivity interaction (KinomeScan (DiscoverX)) EUB0001581a TNIK
[28] = target: Protein kinase C epsilon type (Homo sapiens) (UniProt Q02156); assay: Selectivity interaction (KinomeScan (DiscoverX)) EUB0001581a PRKCE
[29] = target: Eukaryotic translation initiation factor 2-alpha kinase 1 (Homo sapiens) (UniProt Q9BQI3); assay: Selectivity interaction (KinomeScan (DiscoverX)) EUB0001581a EIF2AK1
[30] = system: Hepatocyte growth factor receptor (Homo sapiens), P08581 [M1250T]; assay: Selectivity interaction (KinomeScan (DiscoverX)) EUB0001581a MET
[31] = target: T1, Non-receptor tyrosine-protein kinase TYK2; assay: as §1; remark: listed apart in the source
[32] = target: Protein kinase C eta type (Homo sapiens) (UniProt P24723); assay: Selectivity interaction (KinomeScan (DiscoverX)) EUB0001581a PRKCH
[33] = target: Hormonally up-regulated neu tumor-associated kinase (Homo sapiens) (UniProt P57058); assay: Selectivity interaction (KinomeScan (DiscoverX)) EUB0001581a HUNK
Misshapen-like kinase 1 = Misshapen-like kinase 1 (Homo sapiens, UniProt Q8N4C8); assay: Selectivity interaction (KinomeScan (DiscoverX)) EUB0001581a MINK1
[34] = target: Tyrosine-protein kinase SYK (Homo sapiens, UniProt P43405); assay: Selectivity interaction (KinomeScan (DiscoverX)) EUB0001581a SYK
[35] = target: BMP-2-inducible protein kinase (Homo sapiens) (UniProt Q9NSY1)
[36] = target: TGF-beta receptor type-2 (Homo sapiens) (UniProt P37173); assay: Selectivity interaction (KinomeScan (DiscoverX)) EUB0001581a TGFBR2
[37] = target: Atypical kinase COQ8A, mitochondrial (Homo sapiens, UniProt Q8NI60); assay: Selectivity interaction (KinomeScan (DiscoverX)) EUB0001581a ADCK3
[38] = target: Protein kinase C iota type (Homo sapiens) (UniProt P41743); assay: Selectivity interaction (KinomeScan (DiscoverX)) EUB0001581a PRKCI
[39] = target: Ephrin type-A receptor 2 (Homo sapiens) (UniProt P29317); assay: Selectivity interaction (KinomeScan (DiscoverX)) EUB0001581a EPHA2

Chains of the proteins cited; added tags and fusions are not shown. Lines headed by an entry give the natural chain unless they say otherwise; changes in a name come on top.
UniProt Q9H2G2: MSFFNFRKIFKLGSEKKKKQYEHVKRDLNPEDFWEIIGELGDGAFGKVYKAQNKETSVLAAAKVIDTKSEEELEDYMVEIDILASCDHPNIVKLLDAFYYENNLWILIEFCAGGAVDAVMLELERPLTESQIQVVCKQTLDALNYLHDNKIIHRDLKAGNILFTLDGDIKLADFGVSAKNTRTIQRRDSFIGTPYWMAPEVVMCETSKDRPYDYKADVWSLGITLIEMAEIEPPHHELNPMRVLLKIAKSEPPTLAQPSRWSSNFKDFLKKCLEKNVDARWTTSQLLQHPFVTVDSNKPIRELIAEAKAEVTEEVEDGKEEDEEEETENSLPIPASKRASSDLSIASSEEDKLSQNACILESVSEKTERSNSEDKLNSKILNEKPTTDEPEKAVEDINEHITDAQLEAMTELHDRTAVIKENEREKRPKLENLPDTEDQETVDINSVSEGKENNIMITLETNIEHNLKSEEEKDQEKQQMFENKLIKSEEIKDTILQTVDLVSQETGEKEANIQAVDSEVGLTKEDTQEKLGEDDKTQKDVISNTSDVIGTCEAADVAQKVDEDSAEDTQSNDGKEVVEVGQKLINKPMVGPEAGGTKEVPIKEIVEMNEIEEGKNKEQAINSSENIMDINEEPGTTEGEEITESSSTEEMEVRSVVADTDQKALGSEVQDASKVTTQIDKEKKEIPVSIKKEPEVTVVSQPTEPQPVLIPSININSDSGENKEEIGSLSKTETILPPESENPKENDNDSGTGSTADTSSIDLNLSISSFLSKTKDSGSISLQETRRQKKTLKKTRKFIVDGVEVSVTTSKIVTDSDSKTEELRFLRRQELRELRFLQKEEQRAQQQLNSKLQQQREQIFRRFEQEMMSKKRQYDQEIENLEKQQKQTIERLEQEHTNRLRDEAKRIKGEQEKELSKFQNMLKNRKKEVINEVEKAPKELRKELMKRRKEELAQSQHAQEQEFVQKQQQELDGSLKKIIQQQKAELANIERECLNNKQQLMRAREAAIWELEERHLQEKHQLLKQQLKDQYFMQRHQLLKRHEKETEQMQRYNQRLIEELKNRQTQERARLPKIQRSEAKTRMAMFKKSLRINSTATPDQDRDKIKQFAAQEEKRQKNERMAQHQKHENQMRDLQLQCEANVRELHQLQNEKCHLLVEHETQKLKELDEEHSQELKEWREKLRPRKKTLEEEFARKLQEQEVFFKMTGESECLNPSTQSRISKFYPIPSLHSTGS
UniProt P49336: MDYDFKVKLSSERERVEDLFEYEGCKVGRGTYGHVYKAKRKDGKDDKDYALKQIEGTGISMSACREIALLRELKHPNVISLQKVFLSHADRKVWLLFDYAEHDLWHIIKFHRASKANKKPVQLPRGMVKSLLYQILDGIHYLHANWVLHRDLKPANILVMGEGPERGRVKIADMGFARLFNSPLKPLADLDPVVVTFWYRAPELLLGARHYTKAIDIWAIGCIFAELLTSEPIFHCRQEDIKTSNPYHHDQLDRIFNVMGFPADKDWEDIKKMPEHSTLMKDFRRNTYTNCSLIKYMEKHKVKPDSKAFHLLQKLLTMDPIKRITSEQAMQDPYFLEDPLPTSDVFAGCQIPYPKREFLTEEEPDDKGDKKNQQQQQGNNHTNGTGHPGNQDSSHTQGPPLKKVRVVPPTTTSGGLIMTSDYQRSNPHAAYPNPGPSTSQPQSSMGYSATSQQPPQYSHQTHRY
UniProt O75914, whole entry, looked up: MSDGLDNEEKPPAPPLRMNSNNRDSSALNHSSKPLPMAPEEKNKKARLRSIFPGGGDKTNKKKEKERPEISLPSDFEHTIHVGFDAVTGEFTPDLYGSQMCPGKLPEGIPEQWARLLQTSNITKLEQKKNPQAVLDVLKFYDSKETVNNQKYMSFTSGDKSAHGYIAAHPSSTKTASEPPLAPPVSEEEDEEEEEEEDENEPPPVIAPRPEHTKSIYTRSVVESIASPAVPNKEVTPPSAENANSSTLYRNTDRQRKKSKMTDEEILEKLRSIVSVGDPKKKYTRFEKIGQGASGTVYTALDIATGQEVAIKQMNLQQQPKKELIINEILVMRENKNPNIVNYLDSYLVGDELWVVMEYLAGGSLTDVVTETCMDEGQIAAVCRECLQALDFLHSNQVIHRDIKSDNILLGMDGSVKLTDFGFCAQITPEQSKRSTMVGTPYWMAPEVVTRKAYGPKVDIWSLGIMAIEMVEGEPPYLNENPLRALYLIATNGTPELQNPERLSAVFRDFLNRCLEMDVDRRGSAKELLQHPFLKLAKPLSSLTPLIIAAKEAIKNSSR
UniProt Q8IW41: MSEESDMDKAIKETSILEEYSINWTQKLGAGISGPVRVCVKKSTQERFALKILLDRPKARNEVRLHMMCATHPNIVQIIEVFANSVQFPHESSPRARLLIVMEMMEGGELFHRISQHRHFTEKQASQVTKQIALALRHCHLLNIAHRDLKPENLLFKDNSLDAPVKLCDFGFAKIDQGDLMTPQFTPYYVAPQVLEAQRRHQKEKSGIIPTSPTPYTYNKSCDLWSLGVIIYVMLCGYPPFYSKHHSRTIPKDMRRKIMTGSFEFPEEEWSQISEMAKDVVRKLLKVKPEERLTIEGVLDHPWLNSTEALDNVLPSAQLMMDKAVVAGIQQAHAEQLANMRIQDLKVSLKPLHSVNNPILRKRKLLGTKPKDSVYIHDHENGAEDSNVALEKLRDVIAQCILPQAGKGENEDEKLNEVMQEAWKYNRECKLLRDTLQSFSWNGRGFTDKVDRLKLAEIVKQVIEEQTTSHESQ
UniProt Q8IYT8: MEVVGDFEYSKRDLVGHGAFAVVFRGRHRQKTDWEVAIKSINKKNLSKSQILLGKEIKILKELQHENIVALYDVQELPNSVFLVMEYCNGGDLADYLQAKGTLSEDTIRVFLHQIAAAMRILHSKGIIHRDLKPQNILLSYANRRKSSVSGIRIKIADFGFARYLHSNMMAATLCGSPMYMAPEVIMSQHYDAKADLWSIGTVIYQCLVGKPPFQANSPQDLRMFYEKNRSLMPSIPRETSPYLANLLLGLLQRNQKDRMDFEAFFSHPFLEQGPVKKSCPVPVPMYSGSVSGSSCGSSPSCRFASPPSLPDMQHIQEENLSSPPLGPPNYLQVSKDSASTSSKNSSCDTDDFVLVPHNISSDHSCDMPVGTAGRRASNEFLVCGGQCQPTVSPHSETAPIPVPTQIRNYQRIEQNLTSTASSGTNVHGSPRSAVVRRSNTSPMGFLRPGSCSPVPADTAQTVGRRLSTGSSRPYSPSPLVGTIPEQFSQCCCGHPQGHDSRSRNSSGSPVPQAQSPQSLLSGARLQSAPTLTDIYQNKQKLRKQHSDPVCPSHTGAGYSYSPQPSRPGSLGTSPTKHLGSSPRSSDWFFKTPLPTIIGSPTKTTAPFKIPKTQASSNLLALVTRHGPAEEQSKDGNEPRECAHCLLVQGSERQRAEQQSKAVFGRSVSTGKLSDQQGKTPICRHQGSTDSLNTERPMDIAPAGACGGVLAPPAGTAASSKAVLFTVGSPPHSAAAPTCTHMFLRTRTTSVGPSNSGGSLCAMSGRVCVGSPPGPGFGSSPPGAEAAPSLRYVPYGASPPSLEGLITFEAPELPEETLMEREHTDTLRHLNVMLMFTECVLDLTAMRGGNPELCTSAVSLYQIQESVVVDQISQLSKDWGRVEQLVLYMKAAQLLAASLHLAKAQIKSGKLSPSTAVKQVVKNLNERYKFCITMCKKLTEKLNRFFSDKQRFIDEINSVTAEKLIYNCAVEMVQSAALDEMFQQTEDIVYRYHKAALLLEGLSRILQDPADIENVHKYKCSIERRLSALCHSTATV
UniProt Q9UKE5: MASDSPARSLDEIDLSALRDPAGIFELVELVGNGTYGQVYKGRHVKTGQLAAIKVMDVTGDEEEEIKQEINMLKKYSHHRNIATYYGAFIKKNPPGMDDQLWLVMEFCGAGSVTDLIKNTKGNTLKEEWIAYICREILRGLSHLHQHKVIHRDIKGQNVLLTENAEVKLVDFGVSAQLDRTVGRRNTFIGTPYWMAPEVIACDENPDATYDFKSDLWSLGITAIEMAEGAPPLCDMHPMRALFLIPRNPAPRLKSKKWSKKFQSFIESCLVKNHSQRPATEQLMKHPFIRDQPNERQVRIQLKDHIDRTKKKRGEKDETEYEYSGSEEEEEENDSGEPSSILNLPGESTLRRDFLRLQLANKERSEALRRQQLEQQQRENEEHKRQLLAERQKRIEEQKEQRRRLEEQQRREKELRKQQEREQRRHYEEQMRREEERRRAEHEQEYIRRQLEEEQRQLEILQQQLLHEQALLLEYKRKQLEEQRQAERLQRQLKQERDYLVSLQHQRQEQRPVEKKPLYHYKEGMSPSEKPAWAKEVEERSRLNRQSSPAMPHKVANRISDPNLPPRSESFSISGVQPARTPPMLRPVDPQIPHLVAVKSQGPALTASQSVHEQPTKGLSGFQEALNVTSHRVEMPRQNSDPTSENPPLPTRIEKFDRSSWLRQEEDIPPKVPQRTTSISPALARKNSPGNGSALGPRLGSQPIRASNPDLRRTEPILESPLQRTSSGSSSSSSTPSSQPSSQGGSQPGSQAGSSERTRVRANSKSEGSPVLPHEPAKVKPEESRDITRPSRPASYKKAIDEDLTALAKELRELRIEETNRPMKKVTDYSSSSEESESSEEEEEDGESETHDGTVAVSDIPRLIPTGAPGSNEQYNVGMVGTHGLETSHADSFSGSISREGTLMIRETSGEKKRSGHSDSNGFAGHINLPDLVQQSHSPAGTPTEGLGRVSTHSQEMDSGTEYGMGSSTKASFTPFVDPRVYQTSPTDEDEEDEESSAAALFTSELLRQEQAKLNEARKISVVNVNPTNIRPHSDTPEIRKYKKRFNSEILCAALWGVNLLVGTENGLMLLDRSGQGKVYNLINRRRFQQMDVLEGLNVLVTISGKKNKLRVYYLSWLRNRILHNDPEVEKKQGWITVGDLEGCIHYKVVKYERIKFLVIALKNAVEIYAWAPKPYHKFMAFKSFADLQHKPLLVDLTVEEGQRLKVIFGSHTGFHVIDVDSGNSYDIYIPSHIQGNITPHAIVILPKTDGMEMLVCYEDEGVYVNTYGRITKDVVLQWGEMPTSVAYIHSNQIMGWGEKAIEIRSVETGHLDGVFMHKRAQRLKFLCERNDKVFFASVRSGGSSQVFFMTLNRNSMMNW
UniProt Q8N4C8: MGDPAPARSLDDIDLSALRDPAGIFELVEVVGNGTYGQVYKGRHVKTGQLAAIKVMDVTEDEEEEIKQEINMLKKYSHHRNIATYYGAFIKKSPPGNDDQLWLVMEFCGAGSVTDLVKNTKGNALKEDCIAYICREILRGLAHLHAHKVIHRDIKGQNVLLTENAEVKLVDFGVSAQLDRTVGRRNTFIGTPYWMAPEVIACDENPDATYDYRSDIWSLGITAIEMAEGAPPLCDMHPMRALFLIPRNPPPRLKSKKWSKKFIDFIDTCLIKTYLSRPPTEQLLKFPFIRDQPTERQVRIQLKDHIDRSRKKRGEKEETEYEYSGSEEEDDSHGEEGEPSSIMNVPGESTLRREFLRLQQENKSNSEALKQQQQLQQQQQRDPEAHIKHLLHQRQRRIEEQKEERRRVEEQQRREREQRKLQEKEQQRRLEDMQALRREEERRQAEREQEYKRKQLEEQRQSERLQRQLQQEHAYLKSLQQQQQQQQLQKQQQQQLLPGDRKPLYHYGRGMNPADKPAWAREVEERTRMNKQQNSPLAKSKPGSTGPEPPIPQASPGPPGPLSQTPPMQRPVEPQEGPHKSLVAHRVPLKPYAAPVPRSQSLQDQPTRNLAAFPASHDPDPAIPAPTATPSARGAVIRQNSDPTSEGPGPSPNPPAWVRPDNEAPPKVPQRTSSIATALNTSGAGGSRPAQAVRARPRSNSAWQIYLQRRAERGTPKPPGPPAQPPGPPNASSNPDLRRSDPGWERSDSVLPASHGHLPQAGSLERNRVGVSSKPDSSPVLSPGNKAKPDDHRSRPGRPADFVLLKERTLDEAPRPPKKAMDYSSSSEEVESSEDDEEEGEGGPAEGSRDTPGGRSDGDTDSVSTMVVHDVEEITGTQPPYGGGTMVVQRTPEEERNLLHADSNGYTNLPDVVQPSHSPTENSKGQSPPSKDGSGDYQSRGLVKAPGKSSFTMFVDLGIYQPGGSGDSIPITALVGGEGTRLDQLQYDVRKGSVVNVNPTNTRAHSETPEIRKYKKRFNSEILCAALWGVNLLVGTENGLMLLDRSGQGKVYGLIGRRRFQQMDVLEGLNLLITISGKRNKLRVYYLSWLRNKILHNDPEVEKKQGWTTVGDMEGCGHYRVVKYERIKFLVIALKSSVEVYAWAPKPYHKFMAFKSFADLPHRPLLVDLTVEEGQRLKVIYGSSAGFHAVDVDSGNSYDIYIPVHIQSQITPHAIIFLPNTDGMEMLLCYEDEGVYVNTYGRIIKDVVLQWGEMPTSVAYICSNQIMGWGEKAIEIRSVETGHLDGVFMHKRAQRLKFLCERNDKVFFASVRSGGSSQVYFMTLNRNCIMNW

Molecule `C[C@@H]1C[C@H](N)C[C@H](c2ccncc2NC(=O)c2ccc(F)c(-c3c(F)cccc3F)n2)C1` has a % of control [1] of 100%, a % of control [2] of 76% and a % of control [3] of 87%. It also gave a % of control [4] of 93%, a % of control [5] of 94% and a % of control [6] of 100%. For the same molecule, the % of control [7] was 97%, the % of control [8] was 100% and the % of control [9] was 100%. The % of control [10] was 88%, the % of control [11] was 100% and the % of control [12] was 80%. The % of control [13] was 87%, the % of control [14] was 91% and the % of control [15] was 100%. The % of control [16] was 100%, the % of control [17] was 100% and the % of control [18] was 88%. For the same molecule, the % of control [19] was 100%, the % of control [20] was 82% and the % of control [21] was 90%. The % of control [22] was 100%, the % of control [23] was 73% and the % of control [24] was 100%. The % of control [25] was 89%, the % of control [26] was 97% and the % of control [27] was 100%. It also gave a % of control [28] of 72%, a % of control [29] of 100% and a % of control [30] of 81%. It also gave a % of control [31] of 88%, a % of control [32] of 89% and a % of control [33] of 100%. It also gave a % of control (Misshapen-like kinase 1) of 68%, a % of control [34] of 100% and a % of control [35] of 96%. For the same molecule, the % of control [36] was 100%, the % of control [37] was 83% and the % of control [38] was 81%. The % of control [39] was 100%.

— ChEMBL document CHEMBL5465560, “Selectivity Literature for EUbOPEN Chemogenomic Library” (2024)
